According to patent publication EP2464369B1:
These are yes or no findings as the source states them, for the method shown. Some results given as binding are weak or reduced against the parent protein; the word gives no strength.

Molecular target: T1, Growth and Differentiation Factor-11 (GDF11) (UniProt O95390)
T1 sequence (looked up): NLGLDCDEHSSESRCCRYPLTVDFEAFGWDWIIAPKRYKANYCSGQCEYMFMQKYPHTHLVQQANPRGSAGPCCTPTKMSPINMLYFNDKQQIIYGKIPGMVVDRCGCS
Assay: Biacore; Fc fusion captured by anti-hFc antibody, ligand injected

B1: ActRIIB(A24N 20-134)-hFc (Fc fusion, not shown: a dimerising Fc or GST)
chain: GRGENETRECIYYNANWELERTNQSGLERCEGEQDKRLHCYASWRNSSGTIELVKKGCWLDDFNCYDRQECVATEENPQVYFCCCEGNFCNERFTHLPEAGGPEVTYEPPPTAPT
binding: binds
